{
  "source": "PubChem BioAssay AID192",
  "about": "(DTP/NCI, 2004)",
  "test_system": "BDF1 mice, B16 melanoma ip, median survival T/C",
  "assay": "NCI In Vivo Anticancer Drug Screen. Data for tumor model B16 Melanoma (intraperitoneal) in B6D2F1 (BDF1) mice",
  "details": "T/C endpoint: median survival time, higher T/C = longer survival",
  "summary_of_the_method": "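Read-out: survival or tumor size, given as treated/control ratio. Controls received vehicle only; animals bore transplantable tumors.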",
  "key": {"[1]": {"details": "dose: 100.0 mg/kg/injection, schedule: Q01DX009 (ip), vehicle: saline with Tween-80"}, "[2]": {"details": "dose: 200.0 mg/kg/injection, schedule: Q01DX009 (ip), vehicle: saline with Tween-80"}, "[3]": {"details": "dose: 400.0 mg/kg/injection, schedule: Q01DX009 (ip), vehicle: saline with Tween-80"}, "[4]": {"details": "dose: 25.0 mg/kg/injection, schedule: Q01DX009 (ip), vehicle: Klucel (hydroxypropylcellulose) (HPC)"}, "[5]": {"details": "dose: 100.0 mg/kg/injection, schedule: Q01DX009 (ip), vehicle: saline"}, "[6]": {"details": "dose: 400.0 mg/kg/injection, schedule: Q01DX009 (ip), vehicle: saline"}, "[7]": {"details": "dose: 50.0 mg/kg/injection, schedule: Q01DX009 (ip), vehicle: saline with Tween-80"}, "[8]": {"details": "dose: 25.0 mg/kg/injection, schedule: Q01DX009 (ip), vehicle: saline"}},
  "note": "The list does not hold the whole screen: it is rich in T/C values a quarter to a half above the control, in often repeated tests (any T/C) and in doses without a T/C. Further doses and runs are listed elsewhere. T/C gives the treated animals as a percentage of the vehicle group. Some entries give survivors of the animals treated and no T/C: the source files T/C as zero there, which appears to mark a toxic dose or a test without result, not a measured value. Some survivor counts are full or nearly so, which does not show that the dose was tolerated: the source hardly ever lists a survival T/C far under the control, and the zero likely stands for such cases as well. Counts of survivors are from the toxicity check (mostly the fifth day) where no day follows; animals may have died later. Schedules are NCI's codes, read here as Q, the interval in days (D) or hours (H), X, the number of doses. Counts like (3×) stand for listed records that agree. For survival time, this PubChem deposit counts one and a half times the control or more as active, and values a quarter to a half above the control carry no call in these data; other NCI protocols may use other cut-offs. Some entries were tested several times; their values stand side by side, smallest first.",
  "data": [
    {"smiles": "CC(C)CC(NC(=O)C(N)C(C)C)C(=O)NC(CCCCN)C(=O)Nc1ccc(N(CCCl)CCCl)cc1", "note": "(centres undefined)", "values": [
      {"measurement": "T/C", "setting": "dose: 2.98 mg/kg/injection, schedule: Q01DX009 (ip), vehicle: saline", "value": "134 and 140 % of control"},
      {"measurement": "survivor count", "setting": "dose: 11.9 mg/kg/injection, schedule: Q01DX009 (ip), vehicle: saline", "value": "10 of 10"},
      {"measurement": "survivor count", "setting": "dose: 23.8 mg/kg/injection, schedule: Q01DX009 (ip), vehicle: saline", "value": "10 of 10"}
    ]},
    {"smiles": "COc1ccc([I+]c2ccc(OC)cc2)cc1", "values": [
      {"measurement": "survivor count", "setting": "dose: 6.0 mg/kg/injection, schedule: Q01DX009 (ip), vehicle: saline with Tween-80", "value": "6 of 6"}
    ]},
    {"smiles": "CCCCCCCCCCCC[S+](C)C", "values": [
      {"measurement": "survivor count", "setting": "dose: 32.0 mg/kg/injection, schedule: Q01DX009 (ip), vehicle: saline sonified", "value": "4 of 6"}
    ]},
    {"smiles": "CCCn1cnc2c(=S)nc[nH]c21", "values": [
      {"measurement": "survivor count", "setting": "[1]", "value": "10 of 10"},
      {"measurement": "survivor count", "setting": "dose: 150.0 mg/kg/injection, schedule: Q04DX003 (ip), vehicle: saline with Tween-80", "value": "10 of 10"},
      {"measurement": "survivor count", "setting": "dose: 300.0 mg/kg/injection, schedule: Q04DX003 (ip), vehicle: saline with Tween-80", "value": "10 of 10"},
      {"measurement": "survivor count", "setting": "dose: 600.0 mg/kg/injection, schedule: Q04DX003 (ip), vehicle: saline with Tween-80", "value": "10 of 10"}
    ]},
    {"smiles": "CC(=O)c1ccccc1C", "values": [
      {"measurement": "survivor count", "setting": "[1]", "value": "10 of 10"},
      {"measurement": "survivor count", "setting": "[2]", "value": "0 of 10"},
      {"measurement": "survivor count", "setting": "[3]", "value": "0 of 10"}
    ]},
    {"smiles": "O=C(CBr)CC(O)(C(F)(F)F)C(F)(F)F", "values": [
      {"measurement": "survivor count", "setting": "dose: 6.0 mg/kg/injection, schedule: Q04DX003 (ip), vehicle: saline", "value": "10 of 10"},
      {"measurement": "survivor count", "setting": "dose: 12.0 mg/kg/injection, schedule: Q04DX003 (ip), vehicle: saline", "value": "4 of 10"}
    ]},
    {"smiles": "Cc1cccc(C)c1NC(=S)N(C)C", "values": [
      {"measurement": "survivor count", "setting": "[4]", "value": "9 of 10"},
      {"measurement": "survivor count", "setting": "dose: 50.0 mg/kg/injection, schedule: Q01DX009 (ip), vehicle: Klucel (hydroxypropylcellulose) (HPC)", "value": "6 of 10"},
      {"measurement": "survivor count", "setting": "dose: 100.0 mg/kg/injection, schedule: Q01DX009 (ip), vehicle: Klucel (hydroxypropylcellulose) (HPC)", "value": "0 of 10"},
      {"measurement": "survivor count", "setting": "dose: 200.0 mg/kg/injection, schedule: Q01DX009 (ip), vehicle: Klucel (hydroxypropylcellulose) (HPC)", "value": "0 of 10"},
      {"measurement": "survivor count", "setting": "dose: 400.0 mg/kg/injection, schedule: Q01DX009 (ip), vehicle: Klucel (hydroxypropylcellulose) (HPC)", "value": "0 of 10"}
    ]},
    {"smiles": "O=C(NCCCl)NC1c2cc(Cl)ccc2-c2c(Cl)cc(Cl)cc21", "note": "(centres undefined)", "values": [
      {"measurement": "survivor count", "setting": "[5]", "value": "6 of 6"},
      {"measurement": "survivor count", "setting": "dose: 200.0 mg/kg/injection, schedule: Q01DX009 (ip), vehicle: saline", "value": "6 of 6"},
      {"measurement": "survivor count", "setting": "[6]", "value": "6 of 6"},
      {"measurement": "survivor count", "setting": "dose: 800.0 mg/kg/injection, schedule: Q01DX009 (ip), vehicle: saline", "value": "6 of 6"}
    ]},
    {"smiles": "Cc1ccc(NC(=O)CCl)cc1C", "values": [
      {"measurement": "survivor count", "setting": "[7]", "value": "10 of 10"}
    ]},
    {"smiles": "CN(N=O)C(N)=O", "values": [
      {"measurement": "T/C", "setting": "dose: 6.25 mg/kg/injection, schedule: Q01DX009 (ip), vehicle: saline", "value": "129 % of control"},
      {"measurement": "T/C", "setting": "dose: 12.5 mg/kg/injection, schedule: Q01DX009 (ip), vehicle: saline, evaluated on day 45", "value": "145 % of control"},
      {"measurement": "T/C", "setting": "dose: 12.5 mg/kg/injection, schedule: Q01DX009 (ip), vehicle: saline, evaluated on day 60", "value": "129 % of control"},
      {"measurement": "survivor count", "setting": "[8]", "value": "10 of 10 (2×)"},
      {"measurement": "survivor count", "setting": "dose: 50.0 mg/kg/injection, schedule: Q01DX009 (ip), vehicle: saline", "value": "10 of 10"},
      {"measurement": "survivor count", "setting": "[5]", "value": "7 of 10"},
      {"measurement": "survivor count", "setting": "dose: 150.0 mg/kg/injection, schedule: Q01DX009 (ip), vehicle: saline", "value": "0 of 10"}
    ]},
    {"smiles": "CC(Br)C(=O)NC(C)C(=O)O", "note": "(centres undefined)", "values": [
      {"measurement": "survivor count", "setting": "[1]", "value": "10 of 10"},
      {"measurement": "survivor count", "setting": "[2]", "value": "10 of 10"},
      {"measurement": "survivor count", "setting": "[3]", "value": "10 of 10"}
    ]},
    {"smiles": "CC(C)(SCCc1ccc([N+](=O)[O-])cc1)C(N)C(=O)O", "note": "(centres undefined)", "values": [
      {"measurement": "survivor count", "setting": "dose: 12.5 mg/kg/injection, schedule: Q01DX009 (ip), vehicle: Klucel (hydroxypropylcellulose) (HPC)", "value": "10 of 10"},
      {"measurement": "survivor count", "setting": "[4]", "value": "10 of 10"}
    ]},
    {"smiles": "CC(C)(C)OC(=O)NC(CCC(N)=O)C(=O)O", "note": "(centres undefined)", "values": [
      {"measurement": "survivor count", "setting": "[6]", "value": "9 of 10"}
    ]},
    {"smiles": "C[n+]1c2cc(N)ccc2cc2ccc(N)cc21", "values": [
      {"measurement": "survivor count", "setting": "[8]", "value": "0 of 10"}
    ]},
    {"smiles": "CCCCCCCCCCCCCCCC(=O)N(C/C=C/CN(CCCN(C)C)C(=O)CCCCCCCCCCCCCCC)CCCN(C)C", "values": [
      {"measurement": "survivor count", "setting": "dose: 0.39 mg/kg/injection, schedule: Q01DX009 (ip), vehicle: saline", "value": "10 of 10"},
      {"measurement": "survivor count", "setting": "dose: 0.78 mg/kg/injection, schedule: Q01DX009 (ip), vehicle: saline", "value": "10 of 10"},
      {"measurement": "survivor count", "setting": "dose: 1.56 mg/kg/injection, schedule: Q01DX009 (ip), vehicle: saline with Tween-80", "value": "10 of 10"},
      {"measurement": "survivor count", "setting": "[7]", "value": "4 of 10"}
    ]},
    {"smiles": "CC[n+]1c(C)ccc2ccccc21", "values": [
      {"measurement": "survivor count", "setting": "dose: 100.0 mg/kg/injection, schedule: Q01DX009 (ip), vehicle: carboxymethylcellulose (CMC)", "value": "0 of 10"}
    ]},
    {"smiles": "N/C=N/O", "values": [
      {"measurement": "survivor count", "setting": "[6]", "value": "7 of 10"}
    ]},
    {"smiles": "C[CH2][Pb]([CH2]C)([CH2]C)[O]C(=O)c1ccccc1", "values": [
      {"measurement": "survivor count", "setting": "dose: 3.0 mg/kg/injection, schedule: Q01DX009 (ip), vehicle: Klucel (hydroxypropylcellulose) (HPC)", "value": "10 of 10"},
      {"measurement": "survivor count", "setting": "dose: 6.0 mg/kg/injection, schedule: Q01DX009 (ip), vehicle: Klucel (hydroxypropylcellulose) (HPC)", "value": "10 of 10"},
      {"measurement": "survivor count", "setting": "dose: 12.0 mg/kg/injection, schedule: Q01DX009 (ip), vehicle: Klucel (hydroxypropylcellulose) (HPC)", "value": "7 of 10"}
    ]},
    {"smiles": "COc1c(Cl)cc2c(c1OC)N(C)C1N3C(=O)C4(C)SSC3(C(=O)N4C)C(O)C21O", "note": "(centres undefined)", "values": [
      {"measurement": "T/C", "setting": "dose: 0.5 mg/kg/injection, schedule: Q01DX009 (ip), vehicle: Klucel (hydroxypropylcellulose) (HPC)", "value": "131 % of control"},
      {"measurement": "survivor count", "setting": "dose: 1.0 mg/kg/injection, schedule: Q01DX009 (ip), vehicle: Klucel (hydroxypropylcellulose) (HPC)", "value": "10 of 10"}
    ]}
  ]
}
